According to the supplement of paper PMC6411743:
± gives the standard deviation of the averaged measurements. This is one part of the list.

Chains of the proteins cited; added tags and fusions are not shown. Lines headed by an entry give the natural chain unless they say otherwise; changes in a name come on top.
UniProt Q15392: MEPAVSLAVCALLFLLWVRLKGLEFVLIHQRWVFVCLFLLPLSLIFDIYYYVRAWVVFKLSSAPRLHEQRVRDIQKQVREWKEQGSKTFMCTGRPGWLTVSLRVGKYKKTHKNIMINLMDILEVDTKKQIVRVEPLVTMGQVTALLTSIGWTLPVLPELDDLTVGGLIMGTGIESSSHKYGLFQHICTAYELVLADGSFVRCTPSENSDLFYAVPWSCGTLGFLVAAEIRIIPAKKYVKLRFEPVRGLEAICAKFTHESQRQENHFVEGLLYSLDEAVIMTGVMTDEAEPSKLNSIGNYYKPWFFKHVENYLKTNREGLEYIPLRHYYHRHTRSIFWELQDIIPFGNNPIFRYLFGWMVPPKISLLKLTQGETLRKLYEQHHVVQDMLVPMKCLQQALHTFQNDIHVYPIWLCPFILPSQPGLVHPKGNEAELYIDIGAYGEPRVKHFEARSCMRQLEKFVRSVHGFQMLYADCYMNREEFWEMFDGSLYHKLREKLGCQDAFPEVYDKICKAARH
UniProt Q16566: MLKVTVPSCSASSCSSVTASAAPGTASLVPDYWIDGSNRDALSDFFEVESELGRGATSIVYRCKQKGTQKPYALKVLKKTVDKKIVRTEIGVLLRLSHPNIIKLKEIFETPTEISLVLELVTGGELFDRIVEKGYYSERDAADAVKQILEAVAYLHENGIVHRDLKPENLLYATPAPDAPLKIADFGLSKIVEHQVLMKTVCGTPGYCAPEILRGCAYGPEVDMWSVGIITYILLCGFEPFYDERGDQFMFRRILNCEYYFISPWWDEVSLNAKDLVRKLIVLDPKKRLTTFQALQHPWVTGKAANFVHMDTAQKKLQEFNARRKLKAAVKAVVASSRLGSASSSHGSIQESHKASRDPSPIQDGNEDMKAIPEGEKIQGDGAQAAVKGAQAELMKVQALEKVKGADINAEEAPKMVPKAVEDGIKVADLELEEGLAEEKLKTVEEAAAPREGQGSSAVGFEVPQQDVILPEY
UniProt Q15435: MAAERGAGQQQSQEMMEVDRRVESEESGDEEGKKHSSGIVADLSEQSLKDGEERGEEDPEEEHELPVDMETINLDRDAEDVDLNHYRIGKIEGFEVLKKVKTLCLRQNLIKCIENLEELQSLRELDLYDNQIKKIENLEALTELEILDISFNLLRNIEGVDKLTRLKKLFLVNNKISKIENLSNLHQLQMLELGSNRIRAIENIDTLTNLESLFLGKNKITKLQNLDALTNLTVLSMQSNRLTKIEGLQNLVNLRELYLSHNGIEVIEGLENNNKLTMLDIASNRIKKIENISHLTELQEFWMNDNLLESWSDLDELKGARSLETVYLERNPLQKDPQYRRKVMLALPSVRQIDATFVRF
UniProt Q7Z4G4: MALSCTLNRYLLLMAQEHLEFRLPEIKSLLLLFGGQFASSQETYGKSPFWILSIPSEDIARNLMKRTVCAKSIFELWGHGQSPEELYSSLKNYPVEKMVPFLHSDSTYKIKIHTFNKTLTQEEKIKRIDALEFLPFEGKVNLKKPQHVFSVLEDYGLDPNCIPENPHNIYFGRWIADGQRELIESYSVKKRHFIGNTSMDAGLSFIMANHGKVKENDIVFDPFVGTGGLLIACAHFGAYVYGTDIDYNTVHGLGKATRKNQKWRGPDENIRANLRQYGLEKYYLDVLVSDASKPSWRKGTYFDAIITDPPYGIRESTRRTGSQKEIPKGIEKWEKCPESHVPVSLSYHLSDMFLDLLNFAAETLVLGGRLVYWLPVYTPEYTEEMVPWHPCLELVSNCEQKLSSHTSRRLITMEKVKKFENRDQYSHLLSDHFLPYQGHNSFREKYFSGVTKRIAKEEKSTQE
UniProt Q15633: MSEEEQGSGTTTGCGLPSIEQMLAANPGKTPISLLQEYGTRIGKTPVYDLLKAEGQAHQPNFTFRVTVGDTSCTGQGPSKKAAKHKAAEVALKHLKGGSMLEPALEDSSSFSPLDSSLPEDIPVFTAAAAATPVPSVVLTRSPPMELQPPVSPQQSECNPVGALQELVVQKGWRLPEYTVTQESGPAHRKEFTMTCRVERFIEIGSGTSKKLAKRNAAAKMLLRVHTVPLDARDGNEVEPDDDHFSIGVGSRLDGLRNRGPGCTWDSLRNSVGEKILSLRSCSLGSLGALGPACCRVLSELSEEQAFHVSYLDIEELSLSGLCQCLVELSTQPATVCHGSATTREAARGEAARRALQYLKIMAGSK

Compound: Nc1nc2c(ncn2[C@@H]2O[C@H](COP(=O)(O)OP(=O)(O)OP(=O)(O)O)[C@@H](O)[C@H]2O)c(=O)[nH]1 [guanosine triphosphate]
Assay: NP40-soluble protein abundance relative to vehicle (solubility fold change) (ratio); higher = more soluble protein in presence of GTP
Protocol: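 Solubility proteome profiling in Jurkat crude lysate. Lysate was treated with Mg-GTP (0.1-10 mM) for 10 min at room temperature and 3 min at 37 °C, then solubilised with 0.8% NP40 and benzonase, followed by ultracentrifugation. Proteins were quantified by TMT10 LC-MS/MS; the value is the NP40-soluble abundance relative to the NP40-processed vehicle, from 3 independent experiments.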

Target | NP40-soluble protein abundance (concentration: 0.1mM) | NP40-soluble protein abundance (concentration: 0.5mM) | NP40-soluble protein abundance (concentration: 1mM) | NP40-soluble protein abundance (concentration: 2mM) | NP40-soluble protein abundance (concentration: 4mM) | NP40-soluble protein abundance (concentration: 6mM) | NP40-soluble protein abundance (concentration: 8mM) | NP40-soluble protein abundance (concentration: 10mM)
Q15392 and related entries (UniProt Q3LIE7+Q15392) | 1.11 ± 0.049 | 1.13 ± 0.1 | 0.92 ± 0.065 | 0.965 ± 0.15 | 0.943 ± 0.092 | 0.931 ± 0.098 | 0.869 ± 0.063 | 0.833 ± 0.13
CAMK4 (UniProt Q16566) | 0.981 ± 0.064 | 0.955 ± 0.059 | 0.96 ± 0.08 | 0.907 ± 0.081 | 0.929 ± 0.1 | 0.898 ± 0.095 | 0.934 ± 0.091 | 0.894 ± 0.077
PPP1R7 (UniProt Q15435) | 0.912 ± 0.061 | 0.905 ± 0.061 | 0.911 ± 0.084 | 0.864 ± 0.063 | 0.859 ± 0.082 | 0.864 ± 0.061 | 0.832 ± 0.1 | 0.82 ± 0.085
Q5JY02 and related entries (UniProt Q7Z4G4) | 0.965 ± 0.089 | 0.994 ± 0.13 | 1.05 ± 0.024 | 0.925 ± 0.1 | 0.946 ± 0.068 | 0.982 ± 0.035 | 1.01 ± 0.011 | 0.945 ± 0.064
UniProt Q15633 and related entries | 1.03 ± 0.023 | 0.983 ± 0.043 | 1.059 ± 0.0034 | 1.08 ± 0.03 | 1.06 ± 0.034 | 1.06 ± 0.03 | 1.09 ± 0.033 | 1.11 ± 0.042
